# The supplement of paper PMC3334620
# Whole data set: some 33,000 sequences, median “E-score (-0.5 to 0.5)” near -0.016, cut for the highest 2% near 0.3. The list shows a part of the results.
# Target: T1, Yer184c (UniProt P39961)
# T1 sequence: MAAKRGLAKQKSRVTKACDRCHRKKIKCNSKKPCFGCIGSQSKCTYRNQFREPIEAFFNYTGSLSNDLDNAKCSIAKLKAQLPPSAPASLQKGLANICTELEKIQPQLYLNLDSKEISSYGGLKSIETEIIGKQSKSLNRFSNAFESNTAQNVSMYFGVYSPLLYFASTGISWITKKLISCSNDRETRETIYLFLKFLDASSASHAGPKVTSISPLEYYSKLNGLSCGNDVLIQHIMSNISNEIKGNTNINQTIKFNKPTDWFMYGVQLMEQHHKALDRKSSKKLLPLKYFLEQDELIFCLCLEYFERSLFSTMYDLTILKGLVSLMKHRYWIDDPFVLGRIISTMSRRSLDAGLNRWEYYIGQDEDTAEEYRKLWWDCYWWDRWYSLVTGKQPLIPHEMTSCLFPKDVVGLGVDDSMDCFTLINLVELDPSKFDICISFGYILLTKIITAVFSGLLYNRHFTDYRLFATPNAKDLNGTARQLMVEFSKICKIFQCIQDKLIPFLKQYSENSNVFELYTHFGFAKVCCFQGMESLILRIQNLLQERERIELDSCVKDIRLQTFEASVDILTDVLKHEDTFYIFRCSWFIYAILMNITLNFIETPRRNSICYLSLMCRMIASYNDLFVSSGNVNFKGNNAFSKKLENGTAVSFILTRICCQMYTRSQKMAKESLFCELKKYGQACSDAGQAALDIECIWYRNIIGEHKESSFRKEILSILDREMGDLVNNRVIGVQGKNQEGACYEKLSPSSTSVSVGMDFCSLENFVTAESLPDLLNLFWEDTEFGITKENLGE
# Assay: PBM E-score (8-mer binding enrichment) (E-score (-0.5 to 0.5)); higher = stronger / more preferred TF binding
# Conditions: protein concentration: 100 nM; construct: GST-full length
# Method in brief: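 Masliner-normalised scans of fluorescent anti-GST signal were the basis for scoring. That signal came from GST-tagged yeast transcription factors applied at about 100-200 nM to double-stranded universal all-10-mer Agilent arrays on fresh or once-stripped slides. Each ungapped eight-base word, pooled with its reverse complement, received an E-score from the Universal PBM Analysis Suite.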
row,Sequence,PBM E-score
1,AAGTCGAT,-0.104
2,CAGATAGG,-0.118
3,AGCGATAC,-0.0215
4,ACGCGCAG,-0.232
5,GAAATCGC,0.0587
6,AACTGTTC,0.063
7,CCCCCTAG,-0.409
8,AATCCAGC,0.012
9,ACTCATCT,-0.0347
10,GATACCCC,-0.123
11,CTGGAGAA,-0.0469
12,CAATTCGG,0.12
13,AGCCCCAA,-0.404
14,CCACACTA,0.139
15,CCTATGTC,-0.152
16,CACATCGA,-0.127
17,CAAAGTTG,-0.0329
18,AAGAACAT,0.138
19,ATATTCGC,0.111
20,AAGGGGAT,-0.137
21,GTCCGAGA,0.333
22,AACTCACT,-0.228
23,CGGCTAGC,0.24
24,TCCCCGCA,-0.0944
25,GGCCAAAC,-0.0526

row,Sequence,PBM E-score
1,CATTGGCA,-0.132
2,AGTCTTGG,-0.0577
3,CTGTAGGA,-0.0223
4,AAGAGGCG,-0.0476
5,AAGCACTT,-0.0603
6,AGAGCCAC,-0.12
7,GCCTAGCC,-0.172
8,CGTGACCA,-0.205
9,AGCTCATA,0.0989
10,ACACAACT,-0.074
11,AGGGAGCA,-0.334
12,TTCGTAAA,0.0501
13,AGCATTGA,-0.082
14,GCGAGCCC,-0.182
15,AATAGTCG,0.0462
16,CCTAGATA,-0.25
17,CGGTAACA,0.241
18,GCCCGTGA,-0.132
19,CCCATGAC,-0.117
20,AAGGTATT,0.0587
21,ACCGGATA,0.187
22,AAAACGTT,0.142
23,CAATAGTC,-0.125
24,GTGGACTA,0.0273
25,GGCAGGCA,-0.0182

row,Sequence,PBM E-score
1,CCTCAAGC,-0.209
2,AAGCGGTG,-0.211
3,CAAATAAA,0.21
4,GTGCGGGA,0.0332
5,ACGCGCCT,-0.134
6,AGTGCGCG,-0.151
7,GTGATCAA,0.153
8,CTAATGAG,-0.162
9,ATGTTACC,0.0827
10,CCGCACGA,0.15
11,ATAGCACG,-0.0903
12,GTTCGAAC,0.228
13,CTTAAGGA,-0.0893
14,ACGTGGCG,-0.213
15,ATGCTCTC,-0.0198
16,TATATAGA,0.198
17,AGGTGCGG,-0.0959
18,GGTGCACA,-0.134
19,ATCGAAAG,0.125
20,AAGACAGA,0.212
21,AAACATTT,0.123
22,ACCGCACT,-0.0213
23,CCTATTTA,0.0643
24,AGGAACCC,-0.173
25,AATAACAG,0.232

# Reformatted with bars between the fields: part of the list above.
row | Sequence | PBM E-score
11 | CTGGAGAA | -0.0469
12 | CAATTCGG | 0.12
1 | CCTCAAGC | -0.209

# Additional results follow:

row,Sequence,PBM E-score
1,CAACAGGA,-0.139
2,ATACCCGC,0.0816
3,CTACGGGA,0.0775
4,AGTCGAAG,-0.108
5,ACCTCGCT,0.0583
6,GCCACCCC,-0.32
7,ACAGACGT,-0.0477
8,CACATATA,0.102
9,TGAAGTCA,-0.0926
10,CATTGATA,0.0947
11,CCCTGGAC,-0.204
12,CACGACAG,-0.129
13,GCCTATTA,-0.00127
14,AATTCTCC,0.239
15,CATGAACA,0.15
16,CAAACTCG,0.00018
17,AGGCCGCG,0.0685
18,AGTATGAG,0.0651
19,CGTTAGAC,-0.0103
20,ATTCGCAC,0.041
21,GATAGAGA,0.00952
22,CAAATGAG,-0.104
23,GAACGGAA,0.267
24,ACCGGAAT,0.233
25,AGCCCGTC,-0.213

row,Sequence,PBM E-score
1,AAAACGAA,0.203
2,AATATTGG,-0.13
3,CGGATGCC,0.219
4,AATGGTTG,0.0597
5,AGTGTGTC,-0.0553
6,GTCCGAAA,0.316
7,ACACCCGT,-0.0572
8,CGCAAGGA,-0.0965
9,GGGCTATA,-0.287
10,ACCACTAA,0.124
11,ACGACAAT,0.0693
12,AAGGTGGT,-0.181
13,CGAACAAG,0.167
14,ATTAGAGA,0.037
15,GCATGATA,0.0968
16,CCAGTCAG,-0.225
17,TGTGCACA,-0.205
18,CAACGTAG,-0.099
19,ATACGACG,0.154
20,GCAGACGA,-0.0385
21,CCGTTAGA,0.19
22,GCGGCACC,0.23
23,CGCTCTTA,0.154
24,CTGACCCA,-0.289
25,CCCGTTGC,-0.0512

row,Sequence,PBM E-score
1,GCAAGTTA,0.079
2,GCTGCGAC,-0.182
3,CGCGGAGC,0.171
4,CATAGTGC,0.0533
5,GGTTTGAA,0.202
6,AAGTTAGC,0.175
7,ATATTCCG,0.38
8,CTATTCTC,0.0168
9,CTGGGCAC,-0.0897
10,CATACTAA,0.142
11,ACTGATAA,0.147
12,ACTCCTCT,-0.148
13,TAGAGATA,0.145
14,CCGACGTC,0.0909
15,CAAAGAAG,0.0602
16,CCATGGAG,-0.162
17,GACAGAAA,0.252
18,AGCGGGTC,-0.202
19,GACAGCAC,0.108
20,AAATTGAA,0.0316
21,AGGAGGGG,-0.215
22,AACTCGCA,0.0241
23,GCACATTA,-0.0503
24,CTCACGAA,0.0594
25,CCTAGCCA,-0.128

row,Sequence,PBM E-score
1,ATATGGGA,-0.205
2,AAGAGAAC,0.0994
3,CGGCTTAC,0.151
4,AAGGAAAT,0.107
5,ATCTGTCC,-0.121
6,CGCAGCAG,-0.00318
7,AGGCAGGA,-0.14
8,GTGCCGAA,0.387
9,AAGAACAG,0.0738
10,AGTTGTAC,0.0615
11,CGAGAGTC,-0.0879
12,GATACCAA,0.0987
13,CTTGACGA,-0.0655
14,GCCTACGC,-0.208
15,CTCGCAAC,0.03
16,AATAATAG,0.00819
17,CATCGCGC,-0.0366
18,AAAGTATG,-0.012
19,CAAAAAAG,0.177
20,ACGTGGTA,-0.0833
21,AGCGAATC,0.0598
22,GATACTCC,-0.0289

# As a short view, some entries already given:
row,Sequence,PBM E-score
15,CTCGCAAC,0.03
16,AATAATAG,0.00819
17,CATCGCGC,-0.0366
18,AAAGTATG,-0.012
19,CAAAAAAG,0.177
